These results are taken from the supplement of paper PMC10077471.

The full ranking holds about 1,900 compounds; the median of “excess over highest single agent (ExcessHSA) synergy score, 6x6 matrix” is about -83, and the lowest 2% start at about -370. This is one part of the list.

The experiment deals with NCI-H446. The experiment in a line: excess over highest single agent (ExcessHSA) synergy score, 6x6 matrix; higher = less synergy (more negative = stronger synergy). To be noted: 72 h; CellTiter-Glo viability.
Consider `S=c1nc[nH]c2nc[nH]c12` + Cc1sc2c(c1C)C(c1ccc(Cl)cc1)=N[C@@H](CC(=O)OC(C)(C)C)c1nnc(C)n1-2 [NCGC00250412-19], for which the “excess over highest single agent” value was found to be 15.6. In the case of `CC(C)(O)c1cc2nc(-c3cnc(N)nc3)nc(N3CCOCC3)c2s1` + Cc1sc2c(c1C)C(c1ccc(Cl)cc1)=N[C@@H](CC(=O)OC(C)(C)C)c1nnc(C)n1-2 [NCGC00250412-19] it was -253; in that of `NCc1c[nH]c(=S)n1[C@H]1CCc2c(F)cc(F)cc2C1` + Cc1sc2c(c1C)C(c1ccc(Cl)cc1)=N[C@@H](CC(=O)OC(C)(C)C)c1nnc(C)n1-2 [NCGC00250412-19], -24.9. In the case of `OCc1ccc(-c2nn(Cc3ccccc3)c3ccccc23)o1` + Cc1sc2c(c1C)C(c1ccc(Cl)cc1)=N[C@@H](CC(=O)OC(C)(C)C)c1nnc(C)n1-2 [NCGC00250412-19] it was -215.

In the case of `NC(=O)c1cccnc1` + Cc1sc2c(c1C)C(c1ccc(Cl)cc1)=N[C@@H](CC(=O)OC(C)(C)C)c1nnc(C)n1-2 [NCGC00250412-19], the “excess over highest single agent” value is -63.3. As for `Cn1c(=O)c2c(ncn2CC(O)CO)n(C)c1=O` (stereo not given) + Cc1sc2c(c1C)C(c1ccc(Cl)cc1)=N[C@@H](CC(=O)OC(C)(C)C)c1nnc(C)n1-2 [NCGC00250412-19], the “excess over highest single agent” value is -73.2. For `C[C@@H]1CC[C@@]2(OC1)O[C@H]1C[C@H]3[C@@H]4CC=C5C[C@@H](O[C@@H]6O[C@H](CO)[C@@H](O[C@@H]7O[C@@H](C)[C@H](O)[C@@H](O)[C@H]7O)[C@H](O)[C@H]6O[C@@H]6O[C@@H](C)[C@H](O)[C@@H](O)[C@H]6O)CC[C@]5(C)[C@H]4CC[C@]3(C)[C@H]1[C@@H]2C` + Cc1sc2c(c1C)C(c1ccc(Cl)cc1)=N[C@@H](CC(=O)OC(C)(C)C)c1nnc(C)n1-2 [NCGC00250412-19], the “excess over highest single agent” value was -88.7.

Turning to `Cc1ccc(C(=O)Nc2cccc(C(F)(F)F)c2)cc1Nc1nc(-c2cccnc2)nc2c1cnn2C` + Cc1sc2c(c1C)C(c1ccc(Cl)cc1)=N[C@@H](CC(=O)OC(C)(C)C)c1nnc(C)n1-2 [NCGC00250412-19], the “excess over highest single agent” value is -0.966. For `Cc1noc(-c2ccc(CSCCC(=O)O)cc2)c1NC(=O)OC(C)c1ccccc1Cl` (stereo not given) + Cc1sc2c(c1C)C(c1ccc(Cl)cc1)=N[C@@H](CC(=O)OC(C)(C)C)c1nnc(C)n1-2 [NCGC00250412-19] the value was -62; for `CCOC(=O)N1c2ccc(C(F)(F)F)cc2[C@@H](N(Cc2cc(C(F)(F)F)cc(C(F)(F)F)c2)C(=O)OC)C[C@H]1CC` + Cc1sc2c(c1C)C(c1ccc(Cl)cc1)=N[C@@H](CC(=O)OC(C)(C)C)c1nnc(C)n1-2 [NCGC00250412-19], -232. In the case of `CO[C@H]1C[C@@H]2CC[C@@H](C)[C@@](O)(O2)C(=O)C(=O)N2CCCC[C@H]2C(=O)O[C@H]([C@H](C)C[C@@H]2CC[C@@H](OC(=O)C(C)(CO)CO)[C@H](OC)C2)CC(=O)[C@H](C)/C=C(\C)[C@@H](O)[C@@H](OC)C(=O)[C@H](C)C[C@H](C)/C=C/C=C/C=C/1C` + Cc1sc2c(c1C)C(c1ccc(Cl)cc1)=N[C@@H](CC(=O)OC(C)(C)C)c1nnc(C)n1-2 [NCGC00250412-19] it was -419; in that of `CN1CCCN=C1/C=C/c1cccs1` + Cc1sc2c(c1C)C(c1ccc(Cl)cc1)=N[C@@H](CC(=O)OC(C)(C)C)c1nnc(C)n1-2 [NCGC00250412-19], -4.75. In the case of `CCC[C@@H]1C[C@@H](C(=O)N[C@@H]([C@H]2O[C@H](SC)[C@H](O)[C@@H](O)[C@H]2O)[C@@H](C)O)N(C)C1` + Cc1sc2c(c1C)C(c1ccc(Cl)cc1)=N[C@@H](CC(=O)OC(C)(C)C)c1nnc(C)n1-2 [NCGC00250412-19] it was 70. As for `CC12CC3CC(C)(C1)CC(N)(C3)C2` + Cc1sc2c(c1C)C(c1ccc(Cl)cc1)=N[C@@H](CC(=O)OC(C)(C)C)c1nnc(C)n1-2 [NCGC00250412-19], the “excess over highest single agent” value is -0.949. For `CN1C(C(=O)Nc2ccccn2)=C(O)c2sc(Cl)cc2S1(=O)=O` + Cc1sc2c(c1C)C(c1ccc(Cl)cc1)=N[C@@H](CC(=O)OC(C)(C)C)c1nnc(C)n1-2 [NCGC00250412-19] the value was 395; for `Cn1cc(C2=C(c3cn(C4CCN(Cc5ccccn5)CC4)c4ccccc34)C(=O)NC2=O)c2ccccc21` + Cc1sc2c(c1C)C(c1ccc(Cl)cc1)=N[C@@H](CC(=O)OC(C)(C)C)c1nnc(C)n1-2 [NCGC00250412-19], -58.1; for `O=C(C=Cc1ccc(C=CC(=O)Nc2ccc(C3=NCCN3)cc2)cc1)Nc1ccc(C2=NCCN2)cc1` + Cc1sc2c(c1C)C(c1ccc(Cl)cc1)=N[C@@H](CC(=O)OC(C)(C)C)c1nnc(C)n1-2 [NCGC00250412-19], -46.7. For the compound `O=C(Nc1cccnc1)N1CCC(Cc2cccc(Oc3ccc(C(F)(F)F)cn3)c2)CC1` + Cc1sc2c(c1C)C(c1ccc(Cl)cc1)=N[C@@H](CC(=O)OC(C)(C)C)c1nnc(C)n1-2 [NCGC00250412-19], the “excess over highest single agent” value came out at 57.2. For the compound `O=C(Nc1ccc([N+](=O)[O-])cc1Cl)c1cc(Cl)ccc1O` + Cc1sc2c(c1C)C(c1ccc(Cl)cc1)=N[C@@H](CC(=O)OC(C)(C)C)c1nnc(C)n1-2 [NCGC00250412-19], the “excess over highest single agent” value is -126. For `CCCCc1oc2ccccc2c1C(=O)c1cc(I)c(OCCN(CC)CC)c(I)c1` + Cc1sc2c(c1C)C(c1ccc(Cl)cc1)=N[C@@H](CC(=O)OC(C)(C)C)c1nnc(C)n1-2 [NCGC00250412-19] the value was 17.5. In the case of `CC1(N2CCC(n3c([C@@H]4CCCNC4)nc4ccccc43)CC2)CCCCCCC1` + Cc1sc2c(c1C)C(c1ccc(Cl)cc1)=N[C@@H](CC(=O)OC(C)(C)C)c1nnc(C)n1-2 [NCGC00250412-19] it was -141. For `O=C(O)c1cccnc1` + Cc1sc2c(c1C)C(c1ccc(Cl)cc1)=N[C@@H](CC(=O)OC(C)(C)C)c1nnc(C)n1-2 [NCGC00250412-19] the value was -46.3.

For the compound `C=CCNC1=C2C[C@@H](C)C[C@H](OC)[C@H](O)[C@@H](C)/C=C(\C)[C@H](OC(N)=O)[C@@H](OC)/C=C\C=C(/C)C(=O)NC(=CC1=O)C2=O` + Cc1sc2c(c1C)C(c1ccc(Cl)cc1)=N[C@@H](CC(=O)OC(C)(C)C)c1nnc(C)n1-2 [NCGC00250412-19], the “excess over highest single agent” value is -199.

Turning to `Cc1cccc(N(C)C(=S)Oc2ccc3ccccc3c2)c1` + Cc1sc2c(c1C)C(c1ccc(Cl)cc1)=N[C@@H](CC(=O)OC(C)(C)C)c1nnc(C)n1-2 [NCGC00250412-19], the “excess over highest single agent” value is -107. As to `O=c1[nH]c(=O)n([C@H]2C[C@H](O)[C@@H](CO)O2)cc1I` + Cc1sc2c(c1C)C(c1ccc(Cl)cc1)=N[C@@H](CC(=O)OC(C)(C)C)c1nnc(C)n1-2 [NCGC00250412-19], the “excess over highest single agent” value was -172. In the case of `CN1CCN(c2ccc3nc(-c4c(N)c5c(F)cccc5[nH]c4=O)[nH]c3c2)CC1` + Cc1sc2c(c1C)C(c1ccc(Cl)cc1)=N[C@@H](CC(=O)OC(C)(C)C)c1nnc(C)n1-2 [NCGC00250412-19] it was -118; in that of `COc1ccc(-c2ccc3cc(C(=O)O)ccc3c2)cc1C12CC3CC(CC(C3)C1)C2` + Cc1sc2c(c1C)C(c1ccc(Cl)cc1)=N[C@@H](CC(=O)OC(C)(C)C)c1nnc(C)n1-2 [NCGC00250412-19], -59; in that of `NNC(=O)c1ccncc1` + Cc1sc2c(c1C)C(c1ccc(Cl)cc1)=N[C@@H](CC(=O)OC(C)(C)C)c1nnc(C)n1-2 [NCGC00250412-19], -86.7. For `CC(=O)N(C)C1(c2ccccc2)CCN(CCC[C@]2(c3ccc(Cl)c(Cl)c3)CCCN(C(=O)c3ccccc3)C2)CC1` + Cc1sc2c(c1C)C(c1ccc(Cl)cc1)=N[C@@H](CC(=O)OC(C)(C)C)c1nnc(C)n1-2 [NCGC00250412-19] the value was -142. As to `C[C@H]1C[C@H]2[C@@H]3CCC4=CC(=O)C=C[C@]4(C)[C@H]3C(=O)C[C@]2(C)[C@@]1(O)C(=O)CO` + Cc1sc2c(c1C)C(c1ccc(Cl)cc1)=N[C@@H](CC(=O)OC(C)(C)C)c1nnc(C)n1-2 [NCGC00250412-19], the “excess over highest single agent” value was -318. In the case of `CCC(=O)OCC(=O)[C@@]1(OC(=O)CC)[C@@H](C)C[C@H]2[C@@H]3CCC4=CC(=O)C=C[C@]4(C)[C@@]3(F)[C@@H](O)C[C@@]21C` + Cc1sc2c(c1C)C(c1ccc(Cl)cc1)=N[C@@H](CC(=O)OC(C)(C)C)c1nnc(C)n1-2 [NCGC00250412-19] it was -26.9. For `Cc1ccc(S(=O)(=O)OCC(=O)Nc2ccc(C(=O)O)c(O)c2)cc1` + Cc1sc2c(c1C)C(c1ccc(Cl)cc1)=N[C@@H](CC(=O)OC(C)(C)C)c1nnc(C)n1-2 [NCGC00250412-19] the value was -180; for `O=C(Nc1ncc(SCCN2CCCC2)s1)[C@]1(c2ccc(S(=O)(=O)C3CC3)cc2)C[C@H]1C1CCCCC1` + Cc1sc2c(c1C)C(c1ccc(Cl)cc1)=N[C@@H](CC(=O)OC(C)(C)C)c1nnc(C)n1-2 [NCGC00250412-19], 69.3.

Regarding `CC(=O)OCC(=O)[C@@]1(O)CC[C@H]2[C@@H]3CCC4=CC(=O)C=C[C@]4(C)[C@H]3[C@@H](O)C[C@@]21C` + Cc1sc2c(c1C)C(c1ccc(Cl)cc1)=N[C@@H](CC(=O)OC(C)(C)C)c1nnc(C)n1-2 [NCGC00250412-19], the “excess over highest single agent” value is -68.7.

In the case of `CS[C@H]1SC[C@H]2C(=O)N(C)[C@@H](C(C)C)C(=O)OC[C@@H](NC(=O)c3cnc4ccccc4n3)C(=O)N[C@@H](C)C(=O)N(C)[C@@H]1C(=O)N(C)[C@@H](C(C)C)C(=O)OC[C@@H](NC(=O)c1cnc3ccccc3n1)C(=O)N[C@@H](C)C(=O)N2C` + Cc1sc2c(c1C)C(c1ccc(Cl)cc1)=N[C@@H](CC(=O)OC(C)(C)C)c1nnc(C)n1-2 [NCGC00250412-19], the “excess over highest single agent” value came out at 15.3.
